What was measured:
[1] = test system: primary human hepatocytes; assay: Lactate dehydrogenase; format: cell-based; conditions: donor #2; 100*Cmax; ± cytokine mix
[2] = test system: Akt, p70 S6K, MEK–ERK, and p38–HSP27 signaling pathways; conditions: donor #2; 100*Cmax

**Q.** Which “cell death induced by drug” value [1] does the source give for Nc1nc2ccc(OC(F)(F)F)cc2s1 [riluzole] here?
**A.** induced cell death

**Q.** What about the “activation of the four 'network gauge' signaling pathways compared to control treatments” value [2] of the same molecule?
**A.** without significant activation

Source: paper PMC2943488 (Molecular bioSystems, 2010)
